These are yes or no findings as the source states them, for the method shown. Binding seen in cells or lysates may run through a third protein.
Molecular target: human STAT2, HA-tagged (HA-STAT2-Myc) (human) (UniProt P52630)
Assay: co-IP; HEK293T cells transfected; lysate incubated with anti-HA Affinity Gel at 4°C overnight, immunoblot

By UniProt entry, the sequences of proteins in these tests, tags left out.
UniProt P52630: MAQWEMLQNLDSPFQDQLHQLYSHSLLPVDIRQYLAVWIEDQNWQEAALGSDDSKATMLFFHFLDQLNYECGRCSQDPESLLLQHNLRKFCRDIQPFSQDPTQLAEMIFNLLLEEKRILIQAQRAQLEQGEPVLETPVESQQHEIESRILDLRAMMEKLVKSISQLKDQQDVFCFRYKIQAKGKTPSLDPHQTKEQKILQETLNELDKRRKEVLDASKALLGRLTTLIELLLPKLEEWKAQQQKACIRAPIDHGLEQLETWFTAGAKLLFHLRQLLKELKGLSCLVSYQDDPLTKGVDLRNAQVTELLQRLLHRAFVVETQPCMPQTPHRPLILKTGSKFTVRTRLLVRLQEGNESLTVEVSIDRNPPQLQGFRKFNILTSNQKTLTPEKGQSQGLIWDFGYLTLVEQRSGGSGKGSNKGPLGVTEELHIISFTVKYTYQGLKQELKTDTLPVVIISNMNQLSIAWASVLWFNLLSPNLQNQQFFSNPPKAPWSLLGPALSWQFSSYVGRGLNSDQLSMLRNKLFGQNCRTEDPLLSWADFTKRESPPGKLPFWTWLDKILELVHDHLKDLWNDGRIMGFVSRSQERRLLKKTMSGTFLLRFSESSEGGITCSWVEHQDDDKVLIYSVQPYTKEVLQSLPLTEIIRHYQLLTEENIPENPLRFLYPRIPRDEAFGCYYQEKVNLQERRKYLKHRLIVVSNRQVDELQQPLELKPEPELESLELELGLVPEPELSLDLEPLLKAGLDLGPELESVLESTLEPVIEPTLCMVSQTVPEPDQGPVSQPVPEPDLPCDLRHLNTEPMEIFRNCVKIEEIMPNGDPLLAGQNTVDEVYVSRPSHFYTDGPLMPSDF
UniProt O00429: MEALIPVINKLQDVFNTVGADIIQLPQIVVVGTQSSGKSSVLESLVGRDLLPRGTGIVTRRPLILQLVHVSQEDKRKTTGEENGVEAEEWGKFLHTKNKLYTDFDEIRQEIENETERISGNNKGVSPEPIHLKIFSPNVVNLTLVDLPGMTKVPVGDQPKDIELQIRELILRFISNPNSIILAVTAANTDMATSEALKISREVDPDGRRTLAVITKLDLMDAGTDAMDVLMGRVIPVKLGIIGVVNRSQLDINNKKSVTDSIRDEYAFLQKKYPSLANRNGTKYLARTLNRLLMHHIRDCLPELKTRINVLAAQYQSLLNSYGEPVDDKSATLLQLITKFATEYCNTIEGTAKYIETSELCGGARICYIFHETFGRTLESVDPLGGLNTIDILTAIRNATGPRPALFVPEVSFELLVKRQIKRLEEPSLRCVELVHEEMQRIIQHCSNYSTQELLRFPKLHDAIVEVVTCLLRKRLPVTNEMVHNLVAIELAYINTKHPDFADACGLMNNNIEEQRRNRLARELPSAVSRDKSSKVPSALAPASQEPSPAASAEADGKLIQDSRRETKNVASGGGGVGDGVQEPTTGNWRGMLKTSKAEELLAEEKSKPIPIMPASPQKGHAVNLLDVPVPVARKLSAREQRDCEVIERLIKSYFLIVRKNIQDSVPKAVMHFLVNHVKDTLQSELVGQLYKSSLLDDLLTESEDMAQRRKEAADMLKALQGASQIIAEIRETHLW

Substance: DRP1 (from UniProt O00429 1-736)
- binding: no binding
